# No constants are given. Whether binding was seen depends on the method and setting. In cells and extracts the contact can be indirect. Binding can be weak; no strength is given.
# Amino acid sequences for entries named in this document (tags omitted). A change or cut given only in a name is not applied to a line headed by its entry.
# UniProt E5RWX7: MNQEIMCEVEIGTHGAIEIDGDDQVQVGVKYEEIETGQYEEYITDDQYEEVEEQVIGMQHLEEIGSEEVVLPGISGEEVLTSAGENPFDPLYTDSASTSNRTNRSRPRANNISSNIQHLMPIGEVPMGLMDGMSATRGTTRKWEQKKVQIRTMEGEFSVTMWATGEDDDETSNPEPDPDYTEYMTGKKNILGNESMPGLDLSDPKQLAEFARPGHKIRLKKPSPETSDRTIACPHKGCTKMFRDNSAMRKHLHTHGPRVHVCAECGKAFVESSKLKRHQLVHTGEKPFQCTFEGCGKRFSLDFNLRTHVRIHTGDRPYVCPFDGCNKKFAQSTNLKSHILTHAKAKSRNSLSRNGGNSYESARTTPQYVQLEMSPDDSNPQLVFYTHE
# UniProt E5RWX5: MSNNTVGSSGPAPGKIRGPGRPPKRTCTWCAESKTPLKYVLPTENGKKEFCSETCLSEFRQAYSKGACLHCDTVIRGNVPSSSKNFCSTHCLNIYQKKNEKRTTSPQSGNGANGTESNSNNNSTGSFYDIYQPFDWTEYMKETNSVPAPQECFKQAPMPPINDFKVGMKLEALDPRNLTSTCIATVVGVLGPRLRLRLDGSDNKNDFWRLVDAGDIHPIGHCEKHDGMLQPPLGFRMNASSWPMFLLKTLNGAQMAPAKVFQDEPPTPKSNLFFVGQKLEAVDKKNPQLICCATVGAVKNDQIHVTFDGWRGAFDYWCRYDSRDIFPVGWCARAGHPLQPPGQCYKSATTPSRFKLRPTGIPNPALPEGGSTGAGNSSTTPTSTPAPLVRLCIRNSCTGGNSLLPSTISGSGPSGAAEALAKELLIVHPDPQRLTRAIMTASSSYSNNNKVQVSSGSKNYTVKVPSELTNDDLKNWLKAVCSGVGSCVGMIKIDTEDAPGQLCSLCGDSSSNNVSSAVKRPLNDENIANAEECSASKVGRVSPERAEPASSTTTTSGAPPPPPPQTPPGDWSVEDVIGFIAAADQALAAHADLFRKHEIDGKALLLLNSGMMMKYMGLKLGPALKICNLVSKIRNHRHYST
# UniProt P49867: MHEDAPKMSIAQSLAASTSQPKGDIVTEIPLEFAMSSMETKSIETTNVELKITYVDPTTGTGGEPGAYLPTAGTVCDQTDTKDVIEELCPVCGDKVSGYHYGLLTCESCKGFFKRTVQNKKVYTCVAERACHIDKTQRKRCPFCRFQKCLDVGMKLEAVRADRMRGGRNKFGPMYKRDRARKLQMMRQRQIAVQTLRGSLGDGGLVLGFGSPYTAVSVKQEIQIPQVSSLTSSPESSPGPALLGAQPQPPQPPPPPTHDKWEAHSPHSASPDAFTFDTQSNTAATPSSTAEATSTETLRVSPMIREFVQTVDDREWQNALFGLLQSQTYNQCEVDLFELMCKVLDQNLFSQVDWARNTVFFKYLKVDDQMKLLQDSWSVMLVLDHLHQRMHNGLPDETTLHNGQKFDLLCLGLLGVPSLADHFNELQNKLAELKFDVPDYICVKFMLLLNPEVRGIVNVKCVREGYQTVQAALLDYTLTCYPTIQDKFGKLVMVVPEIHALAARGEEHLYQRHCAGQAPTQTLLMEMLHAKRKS
# UniProt E5RWX8: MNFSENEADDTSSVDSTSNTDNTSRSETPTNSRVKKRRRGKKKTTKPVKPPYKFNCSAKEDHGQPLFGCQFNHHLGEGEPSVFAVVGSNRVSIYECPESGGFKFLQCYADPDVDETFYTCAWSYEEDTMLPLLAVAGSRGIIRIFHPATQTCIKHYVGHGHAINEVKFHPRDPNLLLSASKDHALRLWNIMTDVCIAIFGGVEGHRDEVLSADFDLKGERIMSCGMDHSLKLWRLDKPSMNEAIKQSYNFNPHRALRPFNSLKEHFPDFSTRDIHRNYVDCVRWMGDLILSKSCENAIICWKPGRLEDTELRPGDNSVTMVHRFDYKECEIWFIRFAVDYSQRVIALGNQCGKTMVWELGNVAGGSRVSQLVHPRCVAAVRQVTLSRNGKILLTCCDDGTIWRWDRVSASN
# UniProt E5RWY0: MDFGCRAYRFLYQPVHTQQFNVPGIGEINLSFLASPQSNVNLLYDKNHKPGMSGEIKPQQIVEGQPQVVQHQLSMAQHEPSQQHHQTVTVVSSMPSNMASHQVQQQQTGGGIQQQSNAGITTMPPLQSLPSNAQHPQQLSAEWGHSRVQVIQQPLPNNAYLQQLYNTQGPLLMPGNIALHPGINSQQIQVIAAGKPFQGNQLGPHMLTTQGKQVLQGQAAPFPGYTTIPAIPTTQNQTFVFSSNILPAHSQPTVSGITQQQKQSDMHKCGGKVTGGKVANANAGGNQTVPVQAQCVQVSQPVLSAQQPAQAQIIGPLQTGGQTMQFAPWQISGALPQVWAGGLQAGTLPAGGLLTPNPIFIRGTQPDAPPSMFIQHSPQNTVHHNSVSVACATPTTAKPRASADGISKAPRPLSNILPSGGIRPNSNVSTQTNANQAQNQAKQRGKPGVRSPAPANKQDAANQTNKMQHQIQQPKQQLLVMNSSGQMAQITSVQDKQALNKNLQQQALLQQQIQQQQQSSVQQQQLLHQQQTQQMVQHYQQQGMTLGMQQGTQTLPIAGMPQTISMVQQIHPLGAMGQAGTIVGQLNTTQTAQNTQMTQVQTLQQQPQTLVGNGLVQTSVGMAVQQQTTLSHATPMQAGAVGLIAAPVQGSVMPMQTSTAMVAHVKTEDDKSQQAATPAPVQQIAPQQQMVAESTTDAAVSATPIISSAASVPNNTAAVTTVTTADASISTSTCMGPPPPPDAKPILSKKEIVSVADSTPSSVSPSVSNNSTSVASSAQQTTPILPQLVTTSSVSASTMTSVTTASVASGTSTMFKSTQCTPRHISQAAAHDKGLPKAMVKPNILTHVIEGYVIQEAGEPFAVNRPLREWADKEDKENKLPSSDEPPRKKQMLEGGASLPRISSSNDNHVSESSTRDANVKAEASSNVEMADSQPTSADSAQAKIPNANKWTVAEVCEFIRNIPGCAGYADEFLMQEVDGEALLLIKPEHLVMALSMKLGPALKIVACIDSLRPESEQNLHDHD
# UniProt E5RWX6: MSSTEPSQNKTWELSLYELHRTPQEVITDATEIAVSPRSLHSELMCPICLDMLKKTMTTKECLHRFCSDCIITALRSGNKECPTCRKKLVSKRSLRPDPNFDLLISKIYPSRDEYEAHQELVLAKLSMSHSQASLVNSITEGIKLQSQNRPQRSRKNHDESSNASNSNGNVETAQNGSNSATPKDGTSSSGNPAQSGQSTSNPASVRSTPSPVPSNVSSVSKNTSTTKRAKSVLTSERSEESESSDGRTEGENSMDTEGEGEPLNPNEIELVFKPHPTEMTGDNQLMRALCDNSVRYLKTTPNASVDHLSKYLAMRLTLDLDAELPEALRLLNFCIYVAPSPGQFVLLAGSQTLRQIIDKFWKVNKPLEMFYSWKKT
# Legend:
# BmPho (Bombyx mori) = BmPho (Bombyx mori) (UniProt E5RWX7); assay: co-IP; HA-tagged and Flag-tagged proteins co-expressed in BmN4 cells; lysis in RIPA buffer (50 mM Tris-HCl pH 8.0, 150 mM NaCl, 1% NP-40, 0.5% sodium deoxycholate, 0.1% SDS); IP with anti-HA, elution with HA peptide, blot with anti-Flag
# BmScm (Bombyx mori) = BmScm (Bombyx mori) (UniProt E5RWX5); assay: as above
# [1] = biological target: BmPho (BiFC fusion) (Bombyx mori) (UniProt E5RWX7); assay: split reporter; BiFC: 100 ng of each plasmid for PcG proteins fused in pnVW or pcCW co-transfected into BmN4 cells; green fluorescence observed 72 h after transfection in fixed cells
# [2] = biological target: BmScm (BiFC fusion) (Bombyx mori) (UniProt E5RWX5); assay: as above
binding (BmPho (Bombyx mori)),binding (BmScm (Bombyx mori)),binding [1],binding [2],Substance
no binding,no binding,,,Flag-BmFtz-F1 (from UniProt P49867 1-534)
,,binds,binds,BmEsc (BiFC fusion) (from UniProt E5RWX8)
binds,,,,BmScm (from UniProt E5RWX5)
,,binds,binds,BmPh (BiFC fusion) (from UniProt E5RWY0)
binds,binds,,,BmPh (from UniProt E5RWY0)
,,binds,binds,BmSce (BiFC fusion) (from UniProt E5RWX6)
,,binds,,BmScm (BiFC fusion) (from UniProt E5RWX5)
